PubChem BioAssay AID1159584, Peter MacCallum Cancer Centre – 2016
Screen: 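Knock-downs that harm CDH1-null cells more than parental MCF10A cells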 (primary screen). System: human MCF10A breast epithelial cells, parental and CDH1-null. Reagents: siRNA against human genes. Detection: 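ATP luminescence (CellTiter-Glo) viability per line relative to mean mock wells over all plates, and the ratio of CDH1-null to parental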. Direction: CDH1-null / parental viability ratio: higher = CDH1-null cells survive relatively better than parental.
The deposit covers about 18,000 reagents; below is a part drawn at random. Further read-outs or replicates are left out here. Not stated in the record: the amount of reagent, the time to read-out.

The opening 7 entries, ahead of the listing:
| Target gene | CDH1-null / parental viability ratio |
| --- | --- |
| SSX7 | 1 |
| EOMES | 0.92 |
| PAGE4 | 0.97 |
| RPS4Y2 | 1.94 |
| ABCF2 | 0.98 |
| POTEE | 1 |
| MYOF | 1.12 |

The list itself, from the start:
| Target gene | CDH1-null / parental viability ratio |
| --- | --- |
| SSX7 | 1 |
| EOMES | 0.92 |
| PAGE4 | 0.97 |
| RPS4Y2 | 1.94 |
| ABCF2 | 0.98 |
| POTEE | 1 |
| MYOF | 1.12 |
| PIN4 | 1.06 |
| TAF1D | 1.21 |
| TRAPPC6A | 0.87 |
| RABEP1 | 1.23 |
| CLEC6A | 1.12 |
| TRIM47 | 1.13 |
| INAVA | 1.34 |
| ERP44 | 1.01 |
| KLHL6 | 1.03 |
| HERPUD2 | 0.91 |
| AGAP1 | 1.08 |
| CRCP | 1.34 |
| MYL7 | 1.38 |
| EPB41L4A | 0.91 |
| IL15RA | 1.32 |
| CRHR1 | 0.93 |
| EDRF1 | 1.13 |
| ZNF74 | 1.04 |
| SP140L | 0.78 |
| LRRN4 | 1.09 |
| ZWINT | 1.53 |
| TUBA1B | 1.02 |
| APOD | 1.03 |
| CNIH3 | 1.2 |
| FAM120AOS | 0.83 |
| EPHA7 | 0.76 |
| CSRNP3 | 0.93 |
| SLC71A2 | 0.99 |
| RAB11B | 1.05 |
| STK26 | 0.91 |
| GSN | 1.07 |
| ARL5A | 0.87 |
| TCEA2 | 0.94 |
| OR6C4 | 0.94 |
| CA4 | 1.19 |
| SUGT1 | 1.2 |
| ATG12 | 1.12 |
| CPEB1 | 0.86 |
| PCP2 | 1.27 |
| ACTL6A | 1.04 |
| RAB3IL1 | 0.96 |
| XPNPEP1 | 1.13 |
| RIPPLY2 | 0.78 |
| SLC25A6 | 1.11 |
| PGD | 1.16 |
| SYT2 | 0.79 |
| EBAG9 | 1.23 |
| COMMD6 | 0.77 |
| IRAG2 | 0.96 |
| KRTAP3-3 | 0.68 |
| GPN3 | 1.31 |
| FBN1 | 0.76 |
| NPIPB7 | 0.83 |
| PNLIPRP1 | 0.93 |
| NUAK2 | 1.03 |
| F10 | 1.1 |
| NHERF4 | 0.89 |
| ZBTB32 | 0.9 |
| ADAR | 0.89 |
| PCDHAC2 | 1.6 |
| DLG5 | 0.84 |
